Binding data for 2 molecules are collected here from paper PMC10241913.

In assay [1] the target is T1, Atto594-UBXD1-eUBX (containing the linker), 269-441 (human) (UniProt Q9BZV1).
T1 sequence (chain, Atto594 (NHS ester labelling)): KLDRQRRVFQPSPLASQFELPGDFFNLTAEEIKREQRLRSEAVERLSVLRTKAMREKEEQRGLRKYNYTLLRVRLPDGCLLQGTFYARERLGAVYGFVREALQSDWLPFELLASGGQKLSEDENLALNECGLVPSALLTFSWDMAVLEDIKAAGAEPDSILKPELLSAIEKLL
Nature of the assay: fluorescence polarisation; fluorescence anisotropy titration of Atto594-UBXD1-eUBX (269-441) with UBXD1-PUB as titrant; n = 3; both purified.

The target in assay [2] is T2, UBXD1-eUBX-C (269–441), for fluorescence anisotropy (human) (UniProt Q9BZV1).
T2 sequence (chain, Atto594 (NHS ester; the UBXD1 proteins were labeled for anisotropy)): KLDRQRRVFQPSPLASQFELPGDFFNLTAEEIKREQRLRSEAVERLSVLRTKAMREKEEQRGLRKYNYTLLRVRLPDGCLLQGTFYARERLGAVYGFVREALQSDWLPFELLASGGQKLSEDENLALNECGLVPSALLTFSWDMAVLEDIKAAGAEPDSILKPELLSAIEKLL
Nature of the assay: fluorescence polarisation; fluorescence anisotropy titration of eUBX-C (269–441) and PUB (150–264); which one was labeled is not told; both purified.

Results are given in words; binding and its absence hold for the method and conditions named.

B1: UBXD1-PUB (150-264) (domain or fragment, UniProt Q9BZV1 150-264)
chain: STDPVAASIMKIYTFNKDQDRVKLGVDTIAKYLDNIHLHPEEEKYRKIKLQNKVFQERINCLEGTHEFFEAIGFQKVLLPAQDQEDPEEFYVLSETTLAQPQSLERHKEQLLAAE
Regarding B1, in assay [1], the binding entry was “no binding”.

B2: UBXD1-PUB (150–264) (domain or fragment, UniProt Q9BZV1 150-264)
chain: STDPVAASIMKIYTFNKDQDRVKLGVDTIAKYLDNIHLHPEEEKYRKIKLQNKVFQERINCLEGTHEFFEAIGFQKVLLPAQDQEDPEEFYVLSETTLAQPQSLERHKEQLLAAE
For B2, the binding entry in assay [2] is reported as “no binding”.
